Patent KR20220134462A
Positions count from the first letter of the chain named. These are yes or no findings as the source states them, for the method shown. Some results given as binding are weak or reduced against the parent protein; the word gives no strength. Where a sequence is shown, tags or fusion partners need not be part of it. Blank lines part the entries; values can stand above or below the binder they belong to.

Biological target: T1, Recombinant Human B7-H3 Fc chimera Protein (Rndsystem, Cat# 1027-B3-100) (human) (UniProt Q5ZPR3)
T1 sequence (looked up): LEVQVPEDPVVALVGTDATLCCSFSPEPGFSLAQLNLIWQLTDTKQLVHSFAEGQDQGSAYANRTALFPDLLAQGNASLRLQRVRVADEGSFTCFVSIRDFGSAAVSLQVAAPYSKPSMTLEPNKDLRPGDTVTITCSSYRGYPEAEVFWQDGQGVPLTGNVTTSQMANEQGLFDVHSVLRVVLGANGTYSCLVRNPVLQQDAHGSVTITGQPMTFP
Assay: ELISA, coated recombinant human B7-H3, anti-HA tag HRP detection

- binding: binds
B2: #6 항체 (B7-H3 항체) (antibody, V domains shown)
VH: EVQLLESGGGLVQPGGSLRLSCAASGFTFSTYAISWVRQAPGKGLEWVSSIYYSGYTHYNPSLESRFTISRDNSKNTLYLQMNSLRAEDTAVYYCARGYSGWMDVWGQGTLVTVSS
VL: QSVLTQPPSASGTPGQRVTISCGGNNIGSKSVHWYQQLPGTAPKLLIYDNNKRPSGVPNRFSGSKSGTSASLAISGLRSEDEADYYCAAWDDSLNVPVFGGGTKLTVL

- binding: binds
B3: #9 항체 (B7-H3 항체) (antibody, V domains shown)
VH: EVQLLESGGGLVQPGGSLRLSCAASGFTFSSYAMNWVRQAPGKGLEWVSTISGSGGQTYYADSVKGRFTISRDNSKNTLYLQMNSLRAEDTAVYYCARWRSIWAFDYWGQGTLVTVSS
VL: B2 VL with G23S, G24D, N59D, A88G, A89T, N95S, V96G

- binding: binds
B5: #8 항체 (B7-H3 항체) (antibody, V domains shown)
VH: EVQLLESGGGLVQPGSSLRLSCAASGFTFSSYWISWVRQAPGKGLEWVSEISPSGNTNYNPSLKSRFTISRDNSKNTLYLQMNSLRAEDTAVYYCAREVGDLLDYWGQGTLVTVSS
VL: QSVLTQPPSASGTPGQRVTISCSGSNIGNNYVSWYQQLPGTAPKLLIYQDSKRPSGVPDRFSGSKSGTSASLAISGLRSEDEADYYCLVWDRSSDHFVFGGGTKLTVL

- binding: binds
B6: #5 항체 (B7-H3 항체) (antibody, V domains shown)
VH: EVQLLESGGGLVQPGGSLRLSCAASGFTFSTYAMSWVRQAPGKGLEWVSAISGSGGSTLYADSVKGRFTISRDNSKNTLYLQMNSLRAEDTAVYYCARGGSATWAFDLWGQGTLVTVSS
VL: QSVLTQPPSASGTPGQRVTISCSGSSSNIGSNYVYWYQQLPGTAPKLLIYRNNQRPSGVPDRFSGSKSGTSASLAISGLRSEDEADYYCGTWDSSLSGVVFGGGTKLTVL

- binding: binds
B9: #7 항체 (B7-H3 항체) (antibody, V domains shown)
VH: EVQLLESGGGLVQPGGSLRLSCAASGFTFSNFWIGWVRQAPGKGLEWVSWINPPGSITSYADSVKGRFTISRDNSKDTLYLQMNSLRAEDTAVYYCAREVGDVLDYWGQGTLVTVSS
VL: QSVLTQPPSASGTPGQRVTISCTGTSSDIGRYNYVSWYQQLPGTAPKLLIYRNTQRPSGVPDRFSGSKSGTSASLAISGLRSEDEADYYCGTWDSSLNAYVFGGGTKLTVL

More lines, now with the values behind:

B1: #4 항체 (B7-H3 항체) (antibody, V domains shown)
VH: EVQLLESGGGLVQPGGSLRLSCAASGFTFSSYGMHWVRQAPGKGLEWVSAISGSGTSIYYANSVKSRFTISRDNSKNTLYLQMNSLRAEDTAVYYCARGAGWFDYWGQGTLVTVSS
VL: QSVLTQPPSASGTPGQRVTISCSGSTSNIGSNTVNWYQQLPGTAPKLLIYGKNIRPNGVPDRFSGSKSGTSASLAISGLHSEDEADYYCQSYDSSLSGWVFGGGTKLTVL
- binding: binds

B4: #1 항체 (B7-H3 항체) (antibody, V domains shown)
VH: EVQLLESGGGLVQPGGSLRLSCAASGFTFSSYAMSWVRQAPGKGLEWVSTITGSGGSTYYADSVKGRFTISRDNSKNTLYLQMNSLRAEDTAVYYCARYKSGAFDIWGQGTLVTVSS
VL: EIVLTQSPGTLSLSPGERATLSCRASQGIGNYLGWYQQKPGQAPRLLIYTASSLQSGIPDRFSGSGSGTDFTLTISRLEPEDFAVYYCQQGYSTPSWTFGQGTKVEIK
- binding: binds

B7: #2 항체 (B7-H3 항체) (antibody, V domains shown)
VH: EVQLLESGGGLVQPGGSLRLSCAASGFTFSAYYMIWVRQAPGKGLEWVSITNPSGGVTSYAQKFQGRFTISRDNSKNTLYLQMNSLRAEDTAVYYCARVGGRGFDIWGQGTLVTVSS
VL: EIVLTQSPGTLSLSPGERATLSCHASQGISNYVAWYQQKPGQAPRLLIYDASNRATGIPDRFSGSGSGTDFTLTISHLEPEDFAVYYCQQSYSTLLTFGQGTKVEIK
- binding: binds

B8: #3 항체 (B7-H3 항체) (antibody, V domains shown)
VH: EVQLLESGGGLVQPGGSLRLSCAASGFTFSTYYMTWVRQAPGKGLEWVSIINPRGGSTSYAEKFQGRFTISRDNSKNTLYLQMNSLRAEDTAVYYCARWNLGMDVWGQGTLVTVSS
VL: EIVLTQSPGTLSLSPGERATLSCRVSQSISSYLNWYQQKPGQAPRLLIYDASHRATGIPDRFSGSGSGTDFTLTISRLEPEDFAVYYCQQYYAPSVTFGQGTKVEIK
- binding: binds
